Results as given in PubChem BioAssay AID248 (DTP/NCI, 2004).
The list does not hold the whole screen: it gathers tests that were run many times, whatever their T/C, doses with no T/C, and many T/C values between a quarter and a half above the control. Other doses and runs of a compound stand elsewhere. T/C: endpoint of the treated group in % of that of the vehicle group. Some doses have a count of surviving animals in place of a T/C: the source files T/C as zero there, which appears to mark a toxic dose or a test without result, not a measured value. Some doses without a T/C left all or most animals alive at the check, yet need not have been tolerated: survival well below the control is almost never listed, so the zero probably covers shortened survival too. Survivors were counted at the toxicity check, usually on the fifth day, unless a day is given; later deaths do not show. Schedule codes are those of the source, read here as Q, the interval in days (D) or hours (H), X, the number of doses. Some schedule codes hold Z or #, which are not explained here. Some structures stand for samples that the source files as different forms (salt, stereo form or complex); doses refer to the form tested. For survival time, the PubChem record calls one and a half times the control and up active, and a quarter to a half above the control has no call in these data; cut-offs in other NCI protocols can differ. Some T/C values are followed by the survivors on the day toxicity was checked, most often the fifth; without a count, all were alive then. Some entries were tested several times; the results are listed from low to high.

Tested on: L1210 leukemia ip in BDF1 mice, survival T/C
Test: NCI In Vivo Anticancer Drug Screen. Data for tumor model L1210 Leukemia (intraperitoneal) in B6D2F1 (BDF1) mice
Conditions: T/C endpoint: mean survival time, higher T/C = longer survival
[1] = dose: 400.0 mg/kg/injection, schedule: Q04DX002 (ip), vehicle: Klucel (hydroxypropylcellulose) (HPC)
[2] = dose: 100.0 mg/kg/injection, schedule: Q01DX009 (ip), vehicle: saline
[3] = dose: 200.0 mg/kg/injection, schedule: Q01DX009 (ip), vehicle: saline
[4] = dose: 400.0 mg/kg/injection, schedule: Q01DX009 (ip), vehicle: saline
[5] = dose: 200.0 mg/kg/injection, schedule: Q01DX009 (ip), vehicle: Klucel (hydroxypropylcellulose) (HPC)
[6] = dose: 100.0 mg/kg/injection, schedule: Q04DX003 (ip), vehicle: saline with Tween-80
[7] = dose: 400.0 mg/kg/injection, schedule: Q04DX002 (ip), vehicle: saline with Tween-80
[8] = dose: 400.0 mg/kg/injection, schedule: Q01DX001 (ip), vehicle: saline
[9] = dose: 100.0 mg/kg/injection, schedule: Q04DX003 (ip), vehicle: Klucel (hydroxypropylcellulose) (HPC)
[10] = dose: 200.0 mg/kg/injection, schedule: Q04DX003 (ip), vehicle: Klucel (hydroxypropylcellulose) (HPC)
[11] = dose: 400.0 mg/kg/injection, schedule: Q04DX003 (ip), vehicle: Klucel (hydroxypropylcellulose) (HPC)
[12] = dose: 400.0 mg/kg/injection, schedule: Q01DX009 (ip), vehicle: saline with Tween-80
[13] = dose: 400.0 mg/kg/injection, schedule: Q01DX009 (ip), vehicle: Klucel (hydroxypropylcellulose) (HPC)

## NC1(c2ccccc2)CC1
dose: 200.0 mg/kg/injection, schedule: Q04DX002 (ip), vehicle: Klucel (hydroxypropylcellulose) (HPC)
  survivor count: 1 of 3
[1]
  survivor count: 0 of 3

## O=S(=O)(/C=C(/Cl)c1ccccc1)c1ccccc1
dose: 100.0 mg/kg/injection, schedule: Q01DX009 (ip), vehicle: acetone
  survivor count: 6 of 6
dose: 200.0 mg/kg/injection, schedule: Q04DX003 (ip), vehicle: acetone
  survivor count: 1 of 6
dose: 400.0 mg/kg/injection, schedule: Q04DX003 (ip), vehicle: acetone
  survivor count: 0 of 6

## CCN(CC)CCCNc1cc(Cl)c(Cl)cc1[N+](=O)[O-]
[2]
  survivor count: 6 of 6
[3]
  survivor count: 6 of 6
[4]
  survivor count: 3 of 6

## CCCCC(CN)c1cccc2ccccc12 (stereo not drawn)
dose: 100.0 mg/kg/injection, schedule: Q04DX002 (ip), vehicle: saline with Tween-80
  survivor count: 1 of 3

## O=C(O)COc1ccccc1
[5]
  survivor count: 4 of 6
dose: 300.0 mg/kg/injection, schedule: Q01DX009 (ip), vehicle: Klucel (hydroxypropylcellulose) (HPC)
  survivor count: 0 of 6

## O=C(Nc1ccc(NC(=O)Nc2cccc(C3=NCCCN3)c2)cc1)Nc1cccc(C2=NCCCN2)c1
dose: 25.0 mg/kg/injection, schedule: Q01DX Z (ip), vehicle: carboxymethylcellulose (CMC)
  T/C: 126 % of control
dose: 62.0 mg/kg/injection, schedule: Q01DX Z (oral), vehicle: carboxymethylcellulose (CMC)
  T/C: 125 % of control
dose: 75.0 mg/kg/injection, schedule: Q01DX Z (ip), vehicle: carboxymethylcellulose (CMC)
  T/C: 147 % of control
dose: 100.0 mg/kg/injection, schedule: Q01DX Z (ip), vehicle: carboxymethylcellulose (CMC)
  T/C: 143 % of control

## CC(=O)N(N=O)c1ccc(Cl)cc1[N+](=O)[O-]
[3]
  survivor count: 2 of 6

## O=C(Nc1ccccc1)Oc1ccc(OCc2ccccc2)cc1
[6]
  survivor count: 6 of 6
dose: 200.0 mg/kg/injection, schedule: Q04DX003 (ip), vehicle: saline with Tween-80
  survivor count: 6 of 6
dose: 400.0 mg/kg/injection, schedule: Q04DX003 (ip), vehicle: saline with Tween-80
  survivor count: 6 of 6

## O=C1C2C3C=CC(CC3)C2C(=O)C2C3C=CC(C3)C12 (stereo not drawn)
[7]
  survivor count: 0 of 3

## Cc1ccc(CN(C)C)c(C(O)c2ccccc2)c1 (stereo not drawn)
dose: 200.0 mg/kg/injection, schedule: Q01DX001 (ip), vehicle: saline
  survivor count: 1 of 4
[8]
  survivor count: 0 of 4

## NC(N)=Nc1cccc(OCCCOc2ccccc2)c1
dose: 75.0 mg/kg/injection, schedule: Q01DX001 (ip), vehicle: saline with Tween-80
  survivor count: 6 of 6

## CC1(C)CC2CCC1(Cl)CC2Cl (stereo not drawn)
dose: 200.0 mg/kg/injection, schedule: Q01DX009 (ip), vehicle: saline + alcohol
  survivor count: 0 of 3

## CN(C)CCCN1c2ccccc2Sc2c(Cl)cc(Cl)cc21
[2]
  survivor count: 1 of 6
dose: 200.0 mg/kg/injection, schedule: Q04DX003 (ip), vehicle: saline
  survivor count: 1 of 4
dose: 400.0 mg/kg/injection, schedule: Q04DX003 (ip), vehicle: saline
  survivor count: 0 of 4

## CC[NH-].CC[NH-].[Cl][Pt+2][Cl]
dose: 6.0 mg/kg/injection, schedule: Q01DX001 (ip), vehicle: other
  T/C: 125 % of control
dose: 6.0 mg/kg/injection, schedule: Q01DX009 (ip), vehicle: other
  T/C: 133 % of control
dose: 6.25 mg/kg/injection, schedule: Q01DX009 (ip), vehicle: Klucel (hydroxypropylcellulose) (HPC)
  T/C: 140 % of control
dose: 9.0 mg/kg/injection, schedule: Q01DX009 (ip), vehicle: Klucel (hydroxypropylcellulose) (HPC)
  T/C: 126 % of control
dose: 12.0 mg/kg/injection, schedule: Q04DX003 (ip), vehicle: Klucel (hydroxypropylcellulose) (HPC)
  T/C: 125 % of control
dose: 12.5 mg/kg/injection, schedule: Q04DX003 (ip), vehicle: Klucel (hydroxypropylcellulose) (HPC)
  T/C: 127 % of control
dose: 25.0 mg/kg/injection, schedule: Q01DX009 (ip), vehicle: Klucel (hydroxypropylcellulose) (HPC)
  survivor count: 5 of 6
dose: 50.0 mg/kg/injection, schedule: Q04DX003 (ip), vehicle: Klucel (hydroxypropylcellulose) (HPC)
  survivor count: 2 of 6
[9]
  survivor count: 1 of 5
[10]
  survivor count: 0 of 6
[11]
  survivor count: 0 of 6

## ClC1c2ccccc2-c2nsnc2C1Cl (stereo not drawn)
dose: 100.0 mg/kg/injection, schedule: Q04DX002 (ip), vehicle: Klucel (hydroxypropylcellulose) (HPC)
  survivor count: 3 of 3
[1]
  survivor count: 3 of 3

## COc1ccc(/C(C)=N/N=C(\C)c2ccc(OC)cc2)cc1
[6]
  survivor count: 3 of 3

## S=C(S)Nc1ccccc1
dose: 200.0 mg/kg/injection, schedule: Q01DX001 (ip), vehicle: Klucel (hydroxypropylcellulose) (HPC)
  survivor count: 2 of 6
dose: 400.0 mg/kg/injection, schedule: Q01DX001 (ip), vehicle: Klucel (hydroxypropylcellulose) (HPC)
  survivor count: 0 of 6

## CC([CH2][Hg][Cl])c1ccccc1 (stereo not drawn)
dose: 25.0 mg/kg/injection, schedule: Q04DX003 (ip), vehicle: Klucel (hydroxypropylcellulose) (HPC)
  survivor count: 0 of 6
[9]
  survivor count: 0 of 6
[10]
  survivor count: 0 of 6
[11]
  survivor count: 0 of 6

## CC/C(=N/O)c1ccc(O)cc1O
[12]
  survivor count: 4 of 6

## CN1C(=O)CC2(CCN(CCc3ccccc3)CC2)C1=O
dose: 100.0 mg/kg/injection, schedule: Q01DX009 (ip), vehicle: Klucel (hydroxypropylcellulose) (HPC)
  survivor count: 0 of 6
[5]
  survivor count: 0 of 6
[13]
  survivor count: 0 of 6

## CC(=O)Nc1ccccc1N
[4]
  T/C: 130 [5 of 6 alive] and 138 % of control

## CCCCCCCCCCCCCCC1CC(=O)OC1=O (stereo not drawn)
[13]
  survivor count: 0 of 6

## NC(=O)NCC(=O)O
[13]
  survivor count: 1 of 6

## CN(C)C(C#N)C(=O)c1ccc(Cl)cc1 (stereo not drawn)
[8]
  survivor count: 0 of 6

## ClC1=C(Cl)C2CCC1C2
dose: 200.0 mg/kg/injection, schedule: Q01DX009 (ip), vehicle: saline with Tween-80
  survivor count: 3 of 3
[12]
  survivor count: 0 of 3
[7]
  survivor count: 3 of 3

## ClC1=C(Cl)C(Cl)(Cl)SC1(Cl)Cl
dose: 18.0 mg/kg/injection, schedule: Q01DX009 (ip), vehicle: acetone
  survivor count: 0 of 6
dose: 25.0 mg/kg/injection, schedule: Q04DX003 (ip), vehicle: acetone
  survivor count: 5 of 6
dose: 28.0 mg/kg/injection, schedule: Q01DX009 (ip), vehicle: acetone
  survivor count: 0 of 6
dose: 40.0 mg/kg/injection, schedule: Q01DX009 (ip), vehicle: acetone
  survivor count: 0 of 6
dose: 50.0 mg/kg/injection, schedule: Q04DX003 (ip), vehicle: acetone
  survivor count: 1 of 6

## C/C=C/CC1(C(C)C)C(=O)NC(=O)NC1=O
dose: 300.0 mg/kg/injection, schedule: Q01DX001 (ip), vehicle: other
  survivor count: 0 of 6
dose: 300.0 mg/kg/injection, schedule: Q01DX001 (ip), vehicle: saline
  survivor count: 1 of 6

## CC1N=C(c2ccc(NC(=O)c3ccc(C(=O)Nc4ccc(C5=NC(C)C(C)N5)cc4)cc3)cc2)NC1C (stereo not drawn)
dose: 1.5 mg/kg/injection, schedule: Q01DX Z (ip), vehicle: water
  T/C: 142 % of control
dose: 2.0 mg/kg/injection, schedule: Q01DX015 (ip), vehicle: water
  T/C: 148 % of control
dose: 3.0 mg/kg/injection, schedule: Q01DX Z (ip), vehicle: water
  T/C: 144 % of control [5 of 6 alive]
dose: 4.0 mg/kg/injection, schedule: Q01DX015 (ip), vehicle: water
  T/C: 125 % of control
dose: 6.0 mg/kg/injection, schedule: Q01DX015 (ip), vehicle: water
  survivor count: 0 of 6
dose: 6.0 mg/kg/injection, schedule: Q01DX Z (ip), vehicle: water
  survivor count: 2 of 6
dose: 8.0 mg/kg/injection, schedule: Q01DX015 (ip), vehicle: water
  survivor count: 0 of 6

## CN(C)C(=O)Nc1ccc(Cl)cc1
[4]
  survivor count: 3 of 6
